PMC12094035
No constants are given. Whether binding was seen depends on the method and setting. For some assays here: Binding seen in cells or lysates may run through a third protein. Some binding calls cover weakened binding; strength is not graded here.

Experiments:
[1] = target: GCP6, in the reconstituted human γ-TuRC (human) (UniProt B2RWN4); experiment: cryo-EM structure; NEDD1-containing rec-γ-TuRC; free particles in micrographs of Aher et al. (2024), processed anew; consensus map 4.7 Å; model from AlphaFold 3 predictions fitted to the map and refined, side chains trimmed to β-carbons; both purified
[2] = target: GCP2, in the reconstituted human γ-TuRC (human) (UniProt Q9BSJ2); experiment: as above
[3] = target: GCP3, in the reconstituted human γ-TuRC (human) (UniProt Q96CW5); experiment: as above
[4] = target: GCP5-SBP-Myc WT (human) (UniProt Q96RT8); experiment: pull-down; SBP pull-down of GCP-SBP-Myc constructs on Streptavidin Sepharose from HEK293T lysate co-transfected with V5-NEDD1, 1 h at 4°C; V5 western blot; 50 mM HEPES pH 7.5, 150 mM NaCl, 1% NP-40, 0.5% sodium deoxycholate, 2 mM DTT
[5] = target: GCP5-SBP-Myc quadruple mutant R213A/R228G/L256E/V258E (human) (UniProt Q96RT8); experiment: as above
[6] = target: Myc-SBP-NEDD1 1–634 (fishtail deletion lacking residues 635–660) (human) (UniProt Q8NHV4); experiment: pull-down; SBP pull-down of Myc-SBP-NEDD1 constructs on Streptavidin Sepharose from transfected HEK293T lysate, 1 h at 4°C; endogenous γ-tubulin by western blot; 50 mM Tris-HCl pH 7.5, 150 mM NaCl, 0.1% Triton X-100, 10% glycerol, 2 mM DTT
[7] = target: Myc-SBP-NEDD1 E598A/D602A/E605A (human) (UniProt Q8NHV4); experiment: as above
[8] = target: Myc-SBP-NEDD1 F603A/F622A (human) (UniProt Q8NHV4); experiment: as above
[9] = target: Myc-SBP-NEDD1 WT (human) (UniProt Q8NHV4); experiment: as above

## GCP5, in the reconstituted human γ-TuRC (from UniProt Q96RT8 1-1024)
[1]
  binding: binds

## GCP6, in the reconstituted human γ-TuRC (from UniProt B2RWN4 1-1811)
[2]
  binding: binds
[3]
  binding: binds

## MZT1, in the reconstituted human γ-TuRC (from UniProt Q08AG7 1-82)
[1]
  binding: binds

## N-terminally V5-tagged WT NEDD1 (from UniProt Q8NHV4-1 1-660)
[4]
  binding: binds
[5]
  binding: binds

## endogenous γ-tubulin of HEK293T cells (from UniProt P23258 1-451)
[6]
  binding: binds
[7]
  binding: binds
[8]
  binding: binds
[9]
  binding: binds

## neural precursor cell expressed, developmentally downregulated 1 (NEDD1), full length, in the reconstituted human γ-TuRC (from UniProt Q8NHV4 1-660)
[1]
  binding: binds
